Test results: paper PMC11161652, “ASXLs binding to the PHD2/3 fingers of MLL4 provides a mechanism for the recruitment of BAP1 to active enhancers” (Nature Communications, 2024)
Results are given in words; binding and its absence hold for the method and conditions named. Binding seen in cells or lysates may run through a third protein. Here binding means that the protein was enriched with, or labelled near, the bait; the list need not be complete.

Chains of the proteins cited; added tags and fusions are not shown.
UniProt Q76L83: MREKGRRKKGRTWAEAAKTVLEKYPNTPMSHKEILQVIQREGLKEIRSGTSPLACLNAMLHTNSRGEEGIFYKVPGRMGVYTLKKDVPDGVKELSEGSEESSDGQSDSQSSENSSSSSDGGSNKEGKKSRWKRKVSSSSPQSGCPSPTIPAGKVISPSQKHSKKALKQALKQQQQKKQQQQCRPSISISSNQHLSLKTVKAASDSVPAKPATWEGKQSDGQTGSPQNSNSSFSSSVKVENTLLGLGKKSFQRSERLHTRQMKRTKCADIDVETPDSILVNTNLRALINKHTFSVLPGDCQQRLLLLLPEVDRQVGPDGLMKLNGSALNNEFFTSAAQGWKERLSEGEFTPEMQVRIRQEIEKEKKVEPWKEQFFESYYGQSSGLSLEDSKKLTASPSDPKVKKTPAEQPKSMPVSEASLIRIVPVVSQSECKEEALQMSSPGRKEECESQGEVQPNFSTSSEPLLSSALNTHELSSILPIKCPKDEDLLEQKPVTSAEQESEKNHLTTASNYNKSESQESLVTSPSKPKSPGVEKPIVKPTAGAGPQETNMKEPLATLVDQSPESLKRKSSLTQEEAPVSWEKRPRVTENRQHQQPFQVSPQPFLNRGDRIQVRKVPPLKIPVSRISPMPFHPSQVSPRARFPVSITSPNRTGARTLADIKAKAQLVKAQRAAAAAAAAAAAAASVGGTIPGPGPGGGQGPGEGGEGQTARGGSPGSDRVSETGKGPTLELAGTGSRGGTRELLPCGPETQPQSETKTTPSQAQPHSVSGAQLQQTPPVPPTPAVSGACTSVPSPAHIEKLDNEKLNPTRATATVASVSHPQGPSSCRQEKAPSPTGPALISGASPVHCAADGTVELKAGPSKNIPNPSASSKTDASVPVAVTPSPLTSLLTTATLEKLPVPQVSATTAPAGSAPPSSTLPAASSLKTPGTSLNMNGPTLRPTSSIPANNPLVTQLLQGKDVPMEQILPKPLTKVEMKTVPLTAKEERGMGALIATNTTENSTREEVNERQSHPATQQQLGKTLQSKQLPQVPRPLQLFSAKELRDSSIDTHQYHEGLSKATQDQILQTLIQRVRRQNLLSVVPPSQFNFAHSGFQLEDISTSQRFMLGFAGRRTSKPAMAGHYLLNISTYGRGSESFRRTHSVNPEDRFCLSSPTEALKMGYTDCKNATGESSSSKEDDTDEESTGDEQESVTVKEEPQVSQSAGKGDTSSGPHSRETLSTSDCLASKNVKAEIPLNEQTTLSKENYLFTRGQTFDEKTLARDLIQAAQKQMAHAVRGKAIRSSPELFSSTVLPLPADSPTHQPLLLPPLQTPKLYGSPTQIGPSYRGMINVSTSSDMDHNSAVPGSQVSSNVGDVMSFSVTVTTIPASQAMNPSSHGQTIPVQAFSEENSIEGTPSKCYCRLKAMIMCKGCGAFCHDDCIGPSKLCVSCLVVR
UniProt Q6ZW49: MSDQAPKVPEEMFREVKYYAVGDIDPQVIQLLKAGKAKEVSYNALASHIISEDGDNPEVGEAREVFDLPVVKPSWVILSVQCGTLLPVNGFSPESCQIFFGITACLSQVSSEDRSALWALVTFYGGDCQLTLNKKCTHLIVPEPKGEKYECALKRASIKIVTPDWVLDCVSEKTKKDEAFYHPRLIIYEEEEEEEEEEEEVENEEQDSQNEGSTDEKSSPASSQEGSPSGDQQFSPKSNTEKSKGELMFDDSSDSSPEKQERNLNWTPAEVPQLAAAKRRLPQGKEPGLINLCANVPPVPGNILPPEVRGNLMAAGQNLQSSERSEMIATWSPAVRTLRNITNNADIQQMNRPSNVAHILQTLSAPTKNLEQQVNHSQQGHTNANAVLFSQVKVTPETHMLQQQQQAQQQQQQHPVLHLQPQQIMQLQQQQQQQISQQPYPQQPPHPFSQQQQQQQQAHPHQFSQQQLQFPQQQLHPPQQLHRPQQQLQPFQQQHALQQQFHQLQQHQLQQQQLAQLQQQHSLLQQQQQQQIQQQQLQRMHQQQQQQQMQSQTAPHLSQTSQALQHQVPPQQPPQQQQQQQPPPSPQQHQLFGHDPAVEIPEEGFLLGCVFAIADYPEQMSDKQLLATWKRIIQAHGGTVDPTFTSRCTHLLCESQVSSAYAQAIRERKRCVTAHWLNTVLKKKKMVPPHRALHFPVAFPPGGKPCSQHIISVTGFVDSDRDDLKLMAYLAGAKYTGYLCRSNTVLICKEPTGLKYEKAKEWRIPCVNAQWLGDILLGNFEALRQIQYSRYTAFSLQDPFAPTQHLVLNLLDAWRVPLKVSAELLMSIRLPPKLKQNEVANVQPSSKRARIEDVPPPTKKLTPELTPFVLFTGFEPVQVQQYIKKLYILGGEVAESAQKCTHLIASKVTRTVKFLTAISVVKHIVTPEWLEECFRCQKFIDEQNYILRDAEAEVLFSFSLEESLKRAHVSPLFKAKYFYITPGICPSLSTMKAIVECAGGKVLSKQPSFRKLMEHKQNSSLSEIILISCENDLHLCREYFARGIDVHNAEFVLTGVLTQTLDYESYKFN
UniProt Q15291: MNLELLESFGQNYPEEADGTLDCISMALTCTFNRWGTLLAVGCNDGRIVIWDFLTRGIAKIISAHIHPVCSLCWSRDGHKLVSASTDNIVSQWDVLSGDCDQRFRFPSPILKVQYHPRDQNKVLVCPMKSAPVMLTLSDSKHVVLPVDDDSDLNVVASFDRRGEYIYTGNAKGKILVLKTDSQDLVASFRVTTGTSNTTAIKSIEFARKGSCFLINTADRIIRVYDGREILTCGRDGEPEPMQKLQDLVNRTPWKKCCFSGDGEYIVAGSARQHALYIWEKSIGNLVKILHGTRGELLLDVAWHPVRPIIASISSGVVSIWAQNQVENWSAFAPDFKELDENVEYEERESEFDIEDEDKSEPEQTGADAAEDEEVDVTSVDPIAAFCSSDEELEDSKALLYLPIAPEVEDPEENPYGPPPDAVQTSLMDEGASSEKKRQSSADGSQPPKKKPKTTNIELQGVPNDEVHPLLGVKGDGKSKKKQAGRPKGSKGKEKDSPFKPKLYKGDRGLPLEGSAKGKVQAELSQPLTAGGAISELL
UniProt Q14686: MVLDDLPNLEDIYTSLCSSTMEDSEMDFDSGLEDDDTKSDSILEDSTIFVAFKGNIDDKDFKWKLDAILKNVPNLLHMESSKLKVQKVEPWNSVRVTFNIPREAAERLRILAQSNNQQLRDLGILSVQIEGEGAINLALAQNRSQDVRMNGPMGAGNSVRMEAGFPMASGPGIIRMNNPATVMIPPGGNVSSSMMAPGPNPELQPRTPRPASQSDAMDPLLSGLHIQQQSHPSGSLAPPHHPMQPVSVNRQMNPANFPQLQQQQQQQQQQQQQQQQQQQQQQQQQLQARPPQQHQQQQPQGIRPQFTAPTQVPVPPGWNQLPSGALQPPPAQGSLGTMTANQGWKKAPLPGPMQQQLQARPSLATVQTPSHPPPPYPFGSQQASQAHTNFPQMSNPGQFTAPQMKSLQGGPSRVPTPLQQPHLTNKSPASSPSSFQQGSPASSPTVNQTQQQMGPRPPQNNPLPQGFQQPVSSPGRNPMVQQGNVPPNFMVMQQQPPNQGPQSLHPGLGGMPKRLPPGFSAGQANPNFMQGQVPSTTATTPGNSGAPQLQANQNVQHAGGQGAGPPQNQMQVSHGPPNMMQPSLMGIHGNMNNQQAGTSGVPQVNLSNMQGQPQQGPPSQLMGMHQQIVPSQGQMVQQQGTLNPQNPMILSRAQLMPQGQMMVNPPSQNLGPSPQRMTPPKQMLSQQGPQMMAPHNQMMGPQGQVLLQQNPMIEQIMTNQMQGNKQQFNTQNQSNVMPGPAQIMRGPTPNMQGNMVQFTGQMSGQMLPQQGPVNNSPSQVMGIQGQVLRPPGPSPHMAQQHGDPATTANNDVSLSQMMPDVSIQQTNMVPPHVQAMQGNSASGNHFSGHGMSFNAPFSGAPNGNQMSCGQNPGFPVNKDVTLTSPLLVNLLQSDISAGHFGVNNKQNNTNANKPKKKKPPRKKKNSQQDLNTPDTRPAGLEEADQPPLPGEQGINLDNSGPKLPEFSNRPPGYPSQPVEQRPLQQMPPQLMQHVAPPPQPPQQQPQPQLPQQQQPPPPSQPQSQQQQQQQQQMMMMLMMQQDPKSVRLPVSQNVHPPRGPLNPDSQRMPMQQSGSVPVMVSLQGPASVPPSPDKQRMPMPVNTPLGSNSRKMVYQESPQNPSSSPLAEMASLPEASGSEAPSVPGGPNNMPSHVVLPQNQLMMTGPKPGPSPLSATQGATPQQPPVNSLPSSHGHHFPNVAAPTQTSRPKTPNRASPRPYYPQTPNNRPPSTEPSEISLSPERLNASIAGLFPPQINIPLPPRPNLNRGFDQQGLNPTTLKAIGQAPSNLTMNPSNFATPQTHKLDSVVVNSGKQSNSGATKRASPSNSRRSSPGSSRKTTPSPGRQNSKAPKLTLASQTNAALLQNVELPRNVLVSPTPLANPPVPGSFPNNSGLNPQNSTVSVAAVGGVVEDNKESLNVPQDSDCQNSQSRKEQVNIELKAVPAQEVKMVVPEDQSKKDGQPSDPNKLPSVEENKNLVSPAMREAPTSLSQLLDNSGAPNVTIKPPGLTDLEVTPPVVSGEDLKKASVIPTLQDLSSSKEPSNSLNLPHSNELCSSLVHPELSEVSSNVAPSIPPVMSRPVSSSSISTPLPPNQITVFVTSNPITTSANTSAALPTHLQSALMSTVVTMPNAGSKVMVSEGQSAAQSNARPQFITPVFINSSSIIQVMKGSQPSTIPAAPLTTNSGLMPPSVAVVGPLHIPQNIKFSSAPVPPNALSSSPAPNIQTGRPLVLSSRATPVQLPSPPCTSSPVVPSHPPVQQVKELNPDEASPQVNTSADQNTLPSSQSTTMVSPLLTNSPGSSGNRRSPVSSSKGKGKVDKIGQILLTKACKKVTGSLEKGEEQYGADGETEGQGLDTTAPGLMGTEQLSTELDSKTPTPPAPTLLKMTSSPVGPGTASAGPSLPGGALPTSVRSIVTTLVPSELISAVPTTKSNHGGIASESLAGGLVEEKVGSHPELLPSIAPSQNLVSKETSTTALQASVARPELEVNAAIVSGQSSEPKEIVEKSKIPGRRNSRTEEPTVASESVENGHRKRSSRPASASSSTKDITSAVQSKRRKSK
UniProt Q9UBL3: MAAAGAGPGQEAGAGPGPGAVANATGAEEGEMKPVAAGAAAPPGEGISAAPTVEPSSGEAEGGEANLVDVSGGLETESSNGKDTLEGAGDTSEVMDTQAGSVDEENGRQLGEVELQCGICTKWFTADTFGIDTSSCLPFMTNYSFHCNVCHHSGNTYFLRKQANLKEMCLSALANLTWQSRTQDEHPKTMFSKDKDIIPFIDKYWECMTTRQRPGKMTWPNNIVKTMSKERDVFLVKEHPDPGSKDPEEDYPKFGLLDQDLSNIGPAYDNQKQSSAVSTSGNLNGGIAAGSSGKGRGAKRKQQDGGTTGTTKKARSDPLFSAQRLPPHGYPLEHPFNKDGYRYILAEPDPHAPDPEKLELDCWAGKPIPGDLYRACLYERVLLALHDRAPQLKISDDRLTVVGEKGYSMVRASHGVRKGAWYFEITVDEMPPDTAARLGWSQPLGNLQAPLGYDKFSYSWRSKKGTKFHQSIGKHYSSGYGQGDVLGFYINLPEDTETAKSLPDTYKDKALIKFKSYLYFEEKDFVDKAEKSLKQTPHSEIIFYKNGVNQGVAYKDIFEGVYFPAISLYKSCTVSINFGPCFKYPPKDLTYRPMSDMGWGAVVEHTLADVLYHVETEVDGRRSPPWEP

Target: 3Flag-2Strep-tagged ASXL2, full length wild type (human) (UniProt Q76L83)
Test: affinity purification with mass spectrometry; tandem affinity purification (anti-FLAG, 3xFLAG peptide elution, then Strep-Tactin, biotin elution) of tagged ASXL2 WT or ΔMBH from K562 nuclear extracts; fractions analysed by western blot and mass spectrometry

| binding | Substance |
| --- | --- |
| binds | PAXIP1/PTIP (from UniProt Q6ZW49 1-1069) |
| binds | RBBP5 (from UniProt Q15291 1-538) |
| binds | NCOA6 (from UniProt Q14686 1-2063) |
| binds | ASH2L (from UniProt Q9UBL3 1-628) |
